Measurements as given in PMC2774944.
No constants are given. Whether binding was seen depends on the method and setting. Binding seen in cells or lysates may run through a third protein. Some results given as binding are weak or reduced against the parent protein; the word gives no strength.

By UniProt entry, the sequences of proteins in these tests, tags left out.
UniProt P35222: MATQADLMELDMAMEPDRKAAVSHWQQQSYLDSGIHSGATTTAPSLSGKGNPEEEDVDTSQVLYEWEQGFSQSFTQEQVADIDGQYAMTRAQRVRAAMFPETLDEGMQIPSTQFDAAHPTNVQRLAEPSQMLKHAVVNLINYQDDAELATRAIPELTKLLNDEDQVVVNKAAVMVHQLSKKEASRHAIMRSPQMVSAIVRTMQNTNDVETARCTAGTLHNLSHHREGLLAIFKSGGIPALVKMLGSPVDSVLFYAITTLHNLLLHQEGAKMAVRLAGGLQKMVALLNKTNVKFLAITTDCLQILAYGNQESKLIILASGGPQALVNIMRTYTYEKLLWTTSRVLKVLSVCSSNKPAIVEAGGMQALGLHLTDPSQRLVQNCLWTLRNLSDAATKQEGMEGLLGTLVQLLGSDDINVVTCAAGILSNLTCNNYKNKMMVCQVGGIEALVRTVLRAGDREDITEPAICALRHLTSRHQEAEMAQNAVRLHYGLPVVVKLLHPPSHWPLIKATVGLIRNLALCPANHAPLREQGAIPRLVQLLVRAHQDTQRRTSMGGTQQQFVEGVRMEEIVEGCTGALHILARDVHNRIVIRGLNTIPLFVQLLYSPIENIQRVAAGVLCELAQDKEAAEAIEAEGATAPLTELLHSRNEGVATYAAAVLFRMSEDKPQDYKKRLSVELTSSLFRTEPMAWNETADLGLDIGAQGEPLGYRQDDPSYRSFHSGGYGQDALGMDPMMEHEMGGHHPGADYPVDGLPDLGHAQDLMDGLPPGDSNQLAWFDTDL
UniProt Q924A0: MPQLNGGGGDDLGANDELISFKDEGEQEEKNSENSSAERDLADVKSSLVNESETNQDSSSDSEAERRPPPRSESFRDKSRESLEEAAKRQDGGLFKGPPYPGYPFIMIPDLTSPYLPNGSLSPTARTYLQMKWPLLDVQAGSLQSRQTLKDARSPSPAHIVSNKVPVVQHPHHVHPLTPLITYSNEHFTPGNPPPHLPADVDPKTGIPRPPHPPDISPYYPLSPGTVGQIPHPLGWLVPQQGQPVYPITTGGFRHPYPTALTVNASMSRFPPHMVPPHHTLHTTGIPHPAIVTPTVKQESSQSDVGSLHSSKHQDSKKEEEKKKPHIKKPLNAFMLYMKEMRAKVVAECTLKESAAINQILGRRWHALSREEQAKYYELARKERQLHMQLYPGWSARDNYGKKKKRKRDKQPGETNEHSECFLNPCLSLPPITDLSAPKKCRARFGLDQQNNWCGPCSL

Target: GST-tagged wild-type β-catenin fusion protein (UniProt P35222)
Assay: pull-down; bead-bound GST-β-catenin constructs (20 uL) incubated with 500 µg protein of VDR145+/+ whole cell lysate for 4 hours at 4°C; three washes with cold RIPA buffer; western blot for TCF-4; only the target purified

binding: binds
Substance: TCF-4 (gene name TCF7L2) (from UniProt Q924A0 1-459)
